Source: paper PMC2778012
These are yes or no findings as the source states them, for the method shown. In cells and extracts the contact can be indirect. A result given as binding can be weak or reduced; the word gives no strength.

By UniProt entry, the sequences of proteins in these tests, tags left out. Where a name states a change or a piece, a line headed by the entry shows the natural chain unless it says otherwise. Chains listed by the source or under a name are the forms on record and can include a tag or linker.
UniProt Q8C6B2: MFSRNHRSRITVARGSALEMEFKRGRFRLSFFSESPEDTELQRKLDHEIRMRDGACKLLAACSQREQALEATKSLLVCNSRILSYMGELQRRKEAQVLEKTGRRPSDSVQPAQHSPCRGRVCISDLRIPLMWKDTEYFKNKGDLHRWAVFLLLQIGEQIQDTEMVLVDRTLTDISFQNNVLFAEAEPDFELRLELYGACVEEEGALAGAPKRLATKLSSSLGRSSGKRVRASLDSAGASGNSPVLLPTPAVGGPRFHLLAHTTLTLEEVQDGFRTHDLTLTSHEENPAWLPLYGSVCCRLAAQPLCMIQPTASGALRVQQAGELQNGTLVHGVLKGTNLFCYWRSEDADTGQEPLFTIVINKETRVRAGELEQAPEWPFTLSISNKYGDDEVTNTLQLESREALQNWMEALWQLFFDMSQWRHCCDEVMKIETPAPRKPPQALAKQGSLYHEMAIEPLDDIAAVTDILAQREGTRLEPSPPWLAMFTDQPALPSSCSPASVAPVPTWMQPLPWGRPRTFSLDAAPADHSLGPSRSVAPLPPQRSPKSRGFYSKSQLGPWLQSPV
UniProt P61586: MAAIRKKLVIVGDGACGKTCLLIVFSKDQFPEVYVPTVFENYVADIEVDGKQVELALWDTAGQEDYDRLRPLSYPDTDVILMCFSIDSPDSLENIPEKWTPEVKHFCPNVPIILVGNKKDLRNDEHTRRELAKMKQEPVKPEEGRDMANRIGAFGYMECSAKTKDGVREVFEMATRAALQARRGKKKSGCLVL
C16/20A myc-RhoA (non-targeted) (P61586, form named): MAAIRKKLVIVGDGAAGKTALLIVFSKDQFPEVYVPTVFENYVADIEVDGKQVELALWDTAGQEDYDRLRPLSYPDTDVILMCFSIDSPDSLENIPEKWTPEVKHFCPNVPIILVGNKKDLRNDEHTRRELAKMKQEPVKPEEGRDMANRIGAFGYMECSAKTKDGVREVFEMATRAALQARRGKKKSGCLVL
UniProt P61589: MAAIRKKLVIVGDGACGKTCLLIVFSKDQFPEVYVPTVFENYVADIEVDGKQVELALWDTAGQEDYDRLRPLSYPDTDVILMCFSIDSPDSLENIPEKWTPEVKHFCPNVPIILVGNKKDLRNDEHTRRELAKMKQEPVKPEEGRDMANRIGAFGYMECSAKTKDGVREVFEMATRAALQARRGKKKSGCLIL

These substances were tested against glutathione S-transferase (GST)-Rho binding domain (RBD) of Rhotekin (UniProt Q8C6B2) (assay: pull-down; RhoA activity assay: clarified cell lysates (Buffer A: 50 mM Tris pH 7.6, 500 mM NaCl, 1% Triton X-100, 0.1% SDS, 0.5% deoxycholate, 10 mM MgCl2) incubated with GST-RBD beads, washed three times with ice-cold Buffer B, bound fraction blotted with anti-RhoA or myc antibody; cells serum-starved or in serum, treated with peroxide (0.1-10 uM), washout, antimycin A with or without NAC, FBS or thrombin; only the target purified).

binding | Substance
binds | wt myc-RhoA (non-targeted) (from UniProt P61586 1-193)
binds | C16/20A myc-RhoA (non-targeted) (from UniProt P61586 1-193)
binds | endogenous RhoA (from UniProt P61589 1-193)
